Measured values published in PubChem BioAssay AID485314 (National Center for Advancing Translational Sciences (NCATS), 2010).
The whole screen tested about 340,000 compounds, of which about 4,500 (1.3%) were called active. The shares of active, inactive and inconclusive entries below differ from those in the screen. The call rests on the fitted dose curve; in most records, active means well fitted inhibition curve with a large enough effect; inconclusive means small, poorly fitted or top-dose-only effect, or another doubt; inactive means no such curve, though single readings can be large or run the other way. Potencies beside an inconclusive call are fits to weak or partial responses and may not hold up.

These compounds were tested against DNA polymerase beta (Homo sapiens) (UniProt P06746) (assay: qHTS Assay for Inhibitors of DNA Polymerase Beta). Details: Pol beta primer extension/strand displacement, fluorescence kinetic; activity change, negative = inhibition: at 114 µM (top of the series).
In short: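 Values derive from four-parameter Hill fits of normalized kinetic data: reads at 0 and 10 min following addition of 50 nM substrate to 10 nM Pol beta preincubated 15 min with compound.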
On the % scale 0 is the no-effect control and ±100 the full control effect; potency means the concentration at half of the fitted maximal effect.

| Compound | Potency | activity change, negative = inhibition |
| --- | --- | --- |
| O=C(NNS(=O)(=O)c1ccc(F)cc1)C1CCN(Cc2cccc(F)c2)CC1 | inconclusive: 63.1 µM [inhibitor, single point] |  |
| Cc1ccc(-c2onc3ccc(C(=O)O)cc23)cc1 | inconclusive: 0.141 µM [inhibitor, full curve, poor fit] |  |
| CC1CCCCC1NC(=O)c1cn(C)c2ccc(S(=O)(=O)N3CCOCC3)cc2c1=O (configuration not stated) | inconclusive: 0.126 µM [inhibitor, full curve, poor fit] |  |
| C1CN(CC23CC4CC(CC(C4)C2)C3)CCO1 | inactive |  |
| CCCCNCC(O)(c1ccc(Cl)cc1)c1ccc(Cl)cc1 | inconclusive: 89.1 µM [inhibitor, single point] |  |
| Cn1c(=O)[nH]c(Nc2ccccc2)c([N+](=O)[O-])c1=O | inactive |  |
| O=C(CCc1ccc(Oc2cc([N+](=O)[O-])cc([N+](=O)[O-])c2)cc1)N1CCCCC1 | inconclusive: 28.2 µM [inhibitor, single point] |  |
| COc1ccc(C(=O)O)cc1NC(=S)NC(=O)c1ccc(-c2ccc(Cl)cc2)o1 | inactive |  |
| COc1ccc2nc(COC(=O)c3cccc([N+](=O)[O-])c3)c(C(C)=O)[n+]([O-])c2c1 | inconclusive: 89.1 µM [inhibitor, single point] |  |
| CCc1ccc(CNC(=O)CN2CCSc3ccccc32)cc1 | inconclusive: 89.1 µM [inhibitor, single point] |  |
| N#C/C(=C/c1ccc(OCc2ccc(C(=O)O)cc2)c(Br)c1)c1cccc(F)c1 | inconclusive: 50.1 µM [inhibitor, partial curve] |  |
| O=C(CNC(=O)c1ccccc1)NCC(=O)OCC(=O)c1ccccc1Cl | inconclusive: 89.1 µM [inhibitor, single point] |  |
| Nc1c(C(=O)NCCN2CCOCC2)c2nc3ccccc3nc2n1-c1cccc(F)c1 | inconclusive: 89.1 µM [inhibitor, single point] |  |
| O=c1[nH]c(N/N=C\c2ccc(F)cc2)nc2ccccc12 | inconclusive: 35.5 µM [inhibitor, partial curve] |  |
| O=C(N/N=C/c1sc(N2CCOCC2)nc1-c1ccccc1)c1ccc(O)cc1 | inconclusive: 0.631 µM [inhibitor, full curve, poor fit] |  |
| C/C(=N\NC(=O)CSc1nc2ccccc2c(=O)n1-c1ccccc1C)c1cccs1 | inconclusive: 0.891 µM [inhibitor, full curve, poor fit] |  |
| O=C(O)c1ccc(NC(=S)NC(=O)c2cccc(COc3ccccc3)c2)cc1 | inconclusive: 1.12 µM [inhibitor, full curve, poor fit] |  |
| COc1cc(OC)c(C2=NOC(C(=O)Nc3cc(C)nn3-c3ccccc3)C2)cc1Cl (configuration not stated) | inconclusive: 0.141 µM [inhibitor, full curve] |  |
| CCCCNC(=O)C1Cc2cc(S(=O)(=O)N3CCCC3)ccc2N1C(C)=O (configuration not stated) | inactive |  |
| CCC(=O)N1CCc2cc(S(=O)(=O)NC(C(=O)Nc3ccc(C(C)=O)cc3)C(C)C)ccc21 (configuration not stated) | inactive |  |
| O=C(CN(Cc1ccccc1)C(=O)CNS(=O)(=O)c1ccc(F)cc1)NCC1CCCO1 (configuration not stated) | inconclusive: 0.891 µM [inhibitor, full curve, poor fit] |  |

| Compound | Potency | activity change, negative = inhibition |
| --- | --- | --- |
| Cn1c(=O)oc2cc(S(=O)(=O)Nc3ccc(C(=O)O)cc3)ccc21 | inconclusive: 44.7 µM [inhibitor, partial curve] |  |
| COC(=O)COc1ccc(C2Nc3c(Cl)ccc(C(=O)O)c3C3C=CCC32)cc1 (configuration not stated) | inconclusive: 1.12 µM [inhibitor, full curve] |  |
| COc1ccc2c(c1)CC(C(=O)NCCCN1CCN(c3ccc(F)cc3)CC1)CO2 (configuration not stated) | inactive |  |
| CCCCC1=CC2=CC(=O)C(C)(OC(=O)CC)C(=O)C2=CN1c1ccccc1 (configuration not stated) | inconclusive: 4.47 µM [inhibitor, single point] |  |
| CN1C(=O)c2cccc3c(S(=O)(=O)Nc4ccccn4)ccc1c23 | inconclusive: 0.631 µM [inhibitor, full curve, poor fit] |  |
| CCCCNC(=O)CSc1nccn1Cc1ccccc1 | inconclusive: 39.8 µM [inhibitor, single point] |  |
| Cc1c(Cl)cccc1NC(=O)Nc1ccc(C(N)=O)cc1 | inconclusive: 17.8 µM [inhibitor, full curve, poor fit] |  |
| COC(=O)N/N=C\c1cccc(OC(=O)c2cccs2)c1 | inconclusive: 89.1 µM [inhibitor, single point] |  |
| COCCCn1c(SCc2cccc(C(F)(F)F)c2)nc2cc(OC)c(OC)cc2c1=N | inconclusive: 8.91 µM [inhibitor, full curve, poor fit] |  |
| CCc1nn(CC(=O)NCCCN2CCc3ccccc3C2)c(=O)c2cc3sccc3n12 | inconclusive: 89.1 µM [inhibitor, single point] |  |
| O=C(O)c1ccc(CSc2n[nH]c(-c3ccco3)n2)cc1 | inconclusive: 17.8 µM [inhibitor, partial curve, poor fit] |  |
| COc1ccc(OCCCN2CCCCCC2)cc1 | inconclusive: 79.4 µM [inhibitor, single point] |  |
| CC12CC3(C)CC(C)(C1)CC(NC(=O)N1CCCC1)(C2)C3 | inactive |  |
| O=C(COc1ccccc1F)OCc1cc(=O)n2nc(-c3cccs3)sc2n1 | active: 31.6 µM |  |
| N#Cc1c(-c2cccs2)nc(SCC(=O)c2ccc(Br)cc2)[nH]c1=O |  | inconclusive: -111% [inhibitor] |
| O=C(CCS(=O)(=O)c1ccccc1)Nc1cccc2c1C(=O)NC2=O | inconclusive: 0.141 µM [inhibitor, full curve, poor fit] |  |
| O=C(Nc1ccc(Br)cc1)C1CCN(c2cnccn2)CC1 |  | inconclusive: -33.1% [inhibitor] |
| N#CC1=C2SCN(Cc3ccccc3)CN2C(=O)CC1c1cccs1 (configuration not stated) | inconclusive: 31.6 µM [inhibitor, full curve] |  |
| CCSc1cc(N2CCCC2)nc(-c2ccc(C)cc2)n1 | inactive |  |
| CCOc1ccc2nc(NCCO)[nH]c2c1 | inconclusive: 89.1 µM [inhibitor, single point] |  |
| CCCc1cc(=O)[nH]c(SCC(=O)c2cc(C)n(-c3cc(C)on3)c2C)n1 | inconclusive: 89.1 µM [inhibitor, single point] |  |

Quoted from the listing:
Value for O=C(O)c1ccc(CSc2n[nH]c(-c3ccco3)n2)cc1 under Potency: inconclusive: 17.8 µM [inhibitor, partial curve, poor fit]
Value for CCc1ccc(CNC(=O)CN2CCSc3ccccc32)cc1 under Potency: inconclusive: 89.1 µM [inhibitor, single point]
